Some entries share one result that the patent states for a list of compounds.
Test system: Sprague-Dawley (SD) rats
Assay: Glucose levels in non-fasted Sprague-Dawley rats after subcutaneous injection
Assay type: in vivo
Details: 175 nmol-200 nmol s.c.
Experimental: Male Sprague-Dawley (SD) rats at the age of 8-10 weeks old were administered a dose of 175 nmol-200 nmol insulin analogs 1, 2, 3, 4, APi3545, APi3546, APi3547, and APi3549 through subcutaneous injection. Insulin Degludec was used as a positive control. A vehicle control consisted of glycerol (19.6 mg), metacresol (1.72 mg), phenol (1.50 mg), zinc acetate ([…]), and WFI to 1 mL.

Substance	time low glucose level was maintained
APi3545: A-chain SEQ ID NO: 11 (A14 Aad), B-chain SEQ ID NO: 16 (B16 His(5-I), B25 Ala(4-thiazoyl)); structure FIG. 1H	up to 48 hours
insulin analog 4: A-chain SEQ ID NO: 3 (A14 Gla), B-chain SEQ ID NO: 10 (B16 and B25 Pal, B28 Pip); structure FIG. 1D	up to 48 hours

— patent publication US20250154220A1, “INSULIN ANALOGS FOR THE TREATMENT OF HUMAN METABOLIC DISORDER AND DISEASE” (Ambio, Inc., priority 2023, published 2025)
